Results are given in words; binding and its absence hold for the method and conditions named. For some assays here: Binding seen in cells or lysates may run through a third protein. Some binding calls cover weakened binding; strength is not graded here.
Assays:
[1] = molecular target: FLAG-tagged human skeletal muscle Ala165Val LDB3-LΔex10 (human) (UniProt O75112); assay: co-IP; FLAG antibody; lysates of transfected COS-7 cells; detection with anti-FLAG and anti-HA antibodies
[2] = molecular target: FLAG-tagged human skeletal muscle WT LDB3-LΔex10 (human) (UniProt O75112); assay: as above
[3] = molecular target: GST-tagged mutant LDB3-LΔex10 (Ala165Val) (UniProt O75112); assay: pull-down; recombinant GST-tagged LDB3 proteins as bait; vastus muscle lysates of three wildtype mice; immunoblot; only the target purified
[4] = molecular target: human LDB3 peptide encoded by exons 8 and 11 (amino acid 221-320), bait of the yeast two-hybrid screen (human) (UniProt O75112); assay: two-hybrid; screen by Hybrigenics Services; LDB3 aa 221-320 as bait against a human skeletal muscle cDNA library

Protein sequences, listed by entry. Tags and fused reporters are not part of them. Lines headed by an entry give the natural chain unless they say otherwise; changes in a name come on top. Chains listed by the source or under a name are the forms on record and can include a tag or linker. Residues count along the entry.
GST-tagged mutant LDB3-LΔex10 (Ala165Val) (O75112, form named): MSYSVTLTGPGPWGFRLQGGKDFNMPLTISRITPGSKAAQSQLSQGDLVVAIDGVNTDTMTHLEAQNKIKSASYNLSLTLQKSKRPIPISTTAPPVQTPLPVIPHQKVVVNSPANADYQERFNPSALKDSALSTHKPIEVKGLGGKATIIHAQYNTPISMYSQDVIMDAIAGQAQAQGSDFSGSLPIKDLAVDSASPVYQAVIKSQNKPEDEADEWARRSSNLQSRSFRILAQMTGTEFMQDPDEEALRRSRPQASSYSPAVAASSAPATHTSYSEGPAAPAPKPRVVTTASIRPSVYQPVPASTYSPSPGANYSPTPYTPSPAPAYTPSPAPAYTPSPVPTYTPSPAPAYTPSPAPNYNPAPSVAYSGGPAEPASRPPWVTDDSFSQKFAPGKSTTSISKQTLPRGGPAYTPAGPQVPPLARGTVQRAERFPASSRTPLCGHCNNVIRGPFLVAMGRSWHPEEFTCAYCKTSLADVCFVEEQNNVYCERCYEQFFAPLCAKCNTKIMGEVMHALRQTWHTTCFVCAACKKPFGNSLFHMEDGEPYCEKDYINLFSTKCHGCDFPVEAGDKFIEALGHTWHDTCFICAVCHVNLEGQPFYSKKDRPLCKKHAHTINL
FLAG-tagged human skeletal muscle WT LDB3-LΔex10 (O75112, form named): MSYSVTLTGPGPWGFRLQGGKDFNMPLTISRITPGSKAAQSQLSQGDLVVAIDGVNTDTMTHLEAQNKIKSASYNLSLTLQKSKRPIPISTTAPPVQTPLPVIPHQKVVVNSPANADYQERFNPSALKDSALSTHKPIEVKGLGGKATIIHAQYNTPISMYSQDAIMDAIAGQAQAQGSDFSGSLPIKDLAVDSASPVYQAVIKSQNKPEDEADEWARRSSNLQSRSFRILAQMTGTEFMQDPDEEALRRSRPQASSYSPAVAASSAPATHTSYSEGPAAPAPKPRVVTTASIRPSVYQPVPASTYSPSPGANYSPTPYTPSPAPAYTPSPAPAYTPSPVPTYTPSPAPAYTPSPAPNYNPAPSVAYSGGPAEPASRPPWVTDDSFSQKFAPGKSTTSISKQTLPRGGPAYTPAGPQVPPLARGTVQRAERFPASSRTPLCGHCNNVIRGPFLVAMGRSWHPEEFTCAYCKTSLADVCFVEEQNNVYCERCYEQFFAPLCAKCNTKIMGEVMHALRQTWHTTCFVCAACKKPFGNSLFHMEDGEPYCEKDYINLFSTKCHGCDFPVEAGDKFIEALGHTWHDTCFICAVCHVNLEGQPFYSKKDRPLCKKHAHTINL
HSPA8 internal region (aa 237-468), prey clones of the yeast two-hybrid screen (P11142, residues 237-468): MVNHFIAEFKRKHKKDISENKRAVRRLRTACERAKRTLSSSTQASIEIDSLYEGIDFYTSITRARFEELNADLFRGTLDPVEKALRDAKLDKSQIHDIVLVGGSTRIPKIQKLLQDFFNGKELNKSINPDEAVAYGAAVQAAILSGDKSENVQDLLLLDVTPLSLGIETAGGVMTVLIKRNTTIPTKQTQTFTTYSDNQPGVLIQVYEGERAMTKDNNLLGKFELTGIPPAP
UniProt Q9JLV1: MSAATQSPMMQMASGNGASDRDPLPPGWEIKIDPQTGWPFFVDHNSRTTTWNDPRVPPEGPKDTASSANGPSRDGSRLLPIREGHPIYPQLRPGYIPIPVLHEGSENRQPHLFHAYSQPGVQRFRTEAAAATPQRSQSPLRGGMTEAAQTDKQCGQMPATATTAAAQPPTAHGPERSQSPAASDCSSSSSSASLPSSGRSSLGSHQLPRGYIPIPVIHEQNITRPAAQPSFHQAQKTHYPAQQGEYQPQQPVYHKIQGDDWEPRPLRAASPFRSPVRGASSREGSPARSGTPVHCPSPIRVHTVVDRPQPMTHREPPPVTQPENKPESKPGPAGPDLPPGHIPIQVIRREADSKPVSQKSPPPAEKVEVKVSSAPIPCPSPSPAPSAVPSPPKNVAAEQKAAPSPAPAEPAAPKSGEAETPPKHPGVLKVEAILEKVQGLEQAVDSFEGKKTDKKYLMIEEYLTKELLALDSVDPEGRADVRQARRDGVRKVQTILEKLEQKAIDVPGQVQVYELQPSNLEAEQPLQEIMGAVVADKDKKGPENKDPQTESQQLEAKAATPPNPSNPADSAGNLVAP
UniProt Q8VHX6: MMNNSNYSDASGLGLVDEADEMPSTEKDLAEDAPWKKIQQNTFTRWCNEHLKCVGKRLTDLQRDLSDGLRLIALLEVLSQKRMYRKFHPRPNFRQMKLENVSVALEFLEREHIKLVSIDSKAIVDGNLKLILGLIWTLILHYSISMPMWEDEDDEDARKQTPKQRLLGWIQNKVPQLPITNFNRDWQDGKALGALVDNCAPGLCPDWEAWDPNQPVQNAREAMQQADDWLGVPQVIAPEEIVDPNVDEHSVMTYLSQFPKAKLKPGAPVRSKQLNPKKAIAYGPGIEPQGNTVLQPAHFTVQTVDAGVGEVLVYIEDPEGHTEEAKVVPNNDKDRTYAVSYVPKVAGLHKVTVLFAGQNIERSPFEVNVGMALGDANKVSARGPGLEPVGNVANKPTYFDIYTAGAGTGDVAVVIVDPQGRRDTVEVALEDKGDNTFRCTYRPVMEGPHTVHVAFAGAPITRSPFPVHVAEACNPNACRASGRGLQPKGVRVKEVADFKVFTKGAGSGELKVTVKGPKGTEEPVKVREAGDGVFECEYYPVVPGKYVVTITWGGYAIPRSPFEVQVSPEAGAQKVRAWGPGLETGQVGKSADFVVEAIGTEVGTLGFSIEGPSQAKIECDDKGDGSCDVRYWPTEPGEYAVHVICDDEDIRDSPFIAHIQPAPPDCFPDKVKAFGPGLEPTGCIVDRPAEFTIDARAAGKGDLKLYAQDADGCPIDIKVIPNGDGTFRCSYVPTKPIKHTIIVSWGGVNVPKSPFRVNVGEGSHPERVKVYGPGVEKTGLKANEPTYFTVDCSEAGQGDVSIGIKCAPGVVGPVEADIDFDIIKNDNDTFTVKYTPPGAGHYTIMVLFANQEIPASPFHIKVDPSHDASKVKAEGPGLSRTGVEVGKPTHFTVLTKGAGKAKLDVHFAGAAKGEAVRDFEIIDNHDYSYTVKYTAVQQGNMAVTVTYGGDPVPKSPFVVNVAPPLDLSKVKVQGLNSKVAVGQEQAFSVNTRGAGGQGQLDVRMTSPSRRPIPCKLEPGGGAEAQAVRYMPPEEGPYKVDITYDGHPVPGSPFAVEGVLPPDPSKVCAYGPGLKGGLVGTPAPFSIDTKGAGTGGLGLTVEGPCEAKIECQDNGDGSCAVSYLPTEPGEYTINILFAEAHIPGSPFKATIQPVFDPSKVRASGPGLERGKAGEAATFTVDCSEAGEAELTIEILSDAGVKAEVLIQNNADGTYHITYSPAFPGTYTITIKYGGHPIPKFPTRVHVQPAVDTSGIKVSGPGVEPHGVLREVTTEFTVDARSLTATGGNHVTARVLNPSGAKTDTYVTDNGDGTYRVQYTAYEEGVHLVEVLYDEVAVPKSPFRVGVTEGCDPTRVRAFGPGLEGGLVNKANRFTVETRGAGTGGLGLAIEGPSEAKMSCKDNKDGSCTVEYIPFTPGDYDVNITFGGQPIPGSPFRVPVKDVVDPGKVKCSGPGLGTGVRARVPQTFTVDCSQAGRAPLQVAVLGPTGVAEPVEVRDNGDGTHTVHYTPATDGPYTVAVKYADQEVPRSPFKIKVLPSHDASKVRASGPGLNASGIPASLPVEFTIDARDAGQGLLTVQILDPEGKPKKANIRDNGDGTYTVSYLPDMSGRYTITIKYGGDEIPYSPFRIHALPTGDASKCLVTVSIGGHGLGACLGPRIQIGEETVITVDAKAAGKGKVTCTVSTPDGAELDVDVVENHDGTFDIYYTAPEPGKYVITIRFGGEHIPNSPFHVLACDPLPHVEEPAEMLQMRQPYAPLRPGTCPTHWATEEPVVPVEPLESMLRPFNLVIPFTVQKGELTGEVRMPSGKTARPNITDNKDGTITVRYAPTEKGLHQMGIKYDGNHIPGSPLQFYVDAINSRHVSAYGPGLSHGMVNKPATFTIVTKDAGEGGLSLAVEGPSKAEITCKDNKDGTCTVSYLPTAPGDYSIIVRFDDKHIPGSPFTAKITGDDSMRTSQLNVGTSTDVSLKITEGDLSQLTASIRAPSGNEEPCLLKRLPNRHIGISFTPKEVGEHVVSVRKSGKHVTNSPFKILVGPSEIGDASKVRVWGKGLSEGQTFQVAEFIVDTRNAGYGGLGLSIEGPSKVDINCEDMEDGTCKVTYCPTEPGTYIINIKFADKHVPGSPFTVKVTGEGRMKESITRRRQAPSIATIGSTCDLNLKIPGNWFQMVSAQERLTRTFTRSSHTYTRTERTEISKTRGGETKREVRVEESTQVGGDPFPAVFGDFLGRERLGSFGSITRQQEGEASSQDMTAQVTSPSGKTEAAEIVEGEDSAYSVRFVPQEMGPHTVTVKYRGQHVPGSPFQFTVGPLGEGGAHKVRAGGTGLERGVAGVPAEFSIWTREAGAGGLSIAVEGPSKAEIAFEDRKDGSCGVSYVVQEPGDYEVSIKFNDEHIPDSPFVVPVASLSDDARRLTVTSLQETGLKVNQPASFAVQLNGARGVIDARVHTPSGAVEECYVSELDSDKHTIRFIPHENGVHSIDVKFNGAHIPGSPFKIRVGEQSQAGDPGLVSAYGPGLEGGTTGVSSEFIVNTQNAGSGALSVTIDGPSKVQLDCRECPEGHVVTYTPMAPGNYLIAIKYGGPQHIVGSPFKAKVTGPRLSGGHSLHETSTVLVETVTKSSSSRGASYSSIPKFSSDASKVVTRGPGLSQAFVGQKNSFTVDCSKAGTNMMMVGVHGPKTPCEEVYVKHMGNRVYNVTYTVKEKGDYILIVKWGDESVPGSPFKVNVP

## HA-tagged full-length human HSPA8 (from UniProt P11142-1 1-646)
[1]
  binding: binds
[2]
  binding: binds

## BAG3, endogenous in mouse vastus muscle (from UniProt Q9JLV1 1-577)
[3]
  binding: binds

## HSPA8 internal region (aa 237-468), prey clones of the yeast two-hybrid screen (from UniProt P11142-1 237-468) (domain or fragment)
[4]
  binding: binds

## filamin C, endogenous in mouse skeletal muscle (from UniProt Q8VHX6 1-2726)
[3]
  binding: binds

From paper PMC7979776
